# Values quoted from earlier work, collected in patent publication US20250367113A1, “DRUG DELIVERY SYSTEM COMPRISING AN ANTI-INFLAMMATORY AGENT OR A SALT THEREOF FOR THE APPLICATION TO ESOPHAGEAL MUCOUS MEMBRANES” (EsoCap AG, priority 2022, published 2025).
# For at least one compound, name, drawing or mass did not settle the structure.
# Experiments:
# [1] = system: esophageal epithelial cells; conditions: via mTORC-signaling in eosinophilic esophagitis; cited from earlier work
# eotaxin-3 secretion = conditions: cells from eosinophilic esophagitis patients; cited from earlier work
Structure (SMILES),autophagy of esophageal epithelial cells [1],eotaxin-3 secretion by epithelial cells and fibroblasts (eotaxin-3 secretion)
CO[C@H]1C[C@@H]2CC[C@@H](C)[C@@](O)(O2)C(=O)C(=O)N2CCCC[C@H]2C(=O)O[C@H]([C@H](C)C[C@@H]2CC[C@@H](O)[C@H](OC)C2)CC(=O)[C@H](C)/C=C(\C)[C@@H](O)[C@@H](OC)C(=O)[C@H](C)C[C@H](C)/C=C/C=C/C=C/1C [rapamycin],induced autophagy of esophageal epithelial cells,
N#CC[C@H](C1CCCC1)n1cc(-c2ncnc3[nH]ccc23)cn1 [ruxolitinib],,block eotaxin-3 secretion
